In US20230203142A1, “TREATMENT OF METABOLIC DISORDERS THROUGH THE TARGETING OF A NOVEL CIRCULATING HORMONE COMPLEX” (The President and Fellows of Harvard College, priority 2020, published 2023):
Results are given in words; binding and its absence hold for the method and conditions named. Some binding calls cover weakened binding; strength is not graded here.

The chains behind the UniProt entries cited, without tags or fusion partners. Where a name states a change or a piece, a line headed by the entry shows the natural chain unless it says otherwise.
UniProt P15531: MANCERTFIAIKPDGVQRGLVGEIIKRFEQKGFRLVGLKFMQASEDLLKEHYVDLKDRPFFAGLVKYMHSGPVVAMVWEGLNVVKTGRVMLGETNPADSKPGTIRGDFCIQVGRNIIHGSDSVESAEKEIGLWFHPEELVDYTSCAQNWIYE
UniProt P55263: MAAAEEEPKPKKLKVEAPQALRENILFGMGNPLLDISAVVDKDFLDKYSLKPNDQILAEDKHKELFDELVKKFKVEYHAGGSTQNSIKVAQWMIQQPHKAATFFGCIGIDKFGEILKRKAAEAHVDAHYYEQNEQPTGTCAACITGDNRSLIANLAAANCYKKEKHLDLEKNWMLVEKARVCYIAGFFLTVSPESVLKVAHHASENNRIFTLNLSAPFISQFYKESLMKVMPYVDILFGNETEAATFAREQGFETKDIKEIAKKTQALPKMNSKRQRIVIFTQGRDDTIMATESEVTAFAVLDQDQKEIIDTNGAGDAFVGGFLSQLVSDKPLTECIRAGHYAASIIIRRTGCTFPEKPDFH

Biological target: human NDPK-A (nucleoside diphosphate kinase A), full-length recombinant (human) (UniProt P15531)
Assay: MST

In the case of “human ADK (adenosine kinase), recombinant (from UniProt P55263 2-362) (enzyme)”, the binding is reported as “binds”.
